# Data published in PubChem BioAssay AID504444 (National Center for Advancing Translational Sciences (NCATS), 2011).
# Hit rate of the full screen: of about 360,000 compounds, about 7,500 (2.1%) were called active. The inconclusive results got no clear call from the source; some entries with a clear call stand among them for comparison. The call rests on the fitted dose curve; in most records, active means well fitted inhibition curve with a large enough effect; inconclusive means small, poorly fitted or top-dose-only effect, or effect the other way; inactive means flat fitted curve, though single readings scatter. Potencies beside an inconclusive call are fits to weak or partial responses and may not hold up.
# Experiment: Nrf2 qHTS screen for inhibitors; further: nearly all actives have a fitted effect of over 60% in size
# Settings: A549 ARE-Fluc reporter, luciferase luminescence, 18-24 h; series mostly up to 46 µM
# Procedure, shortened: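 Two sequential reads on A549 ARE_Fluc cells exposed to compound for 18-24 h: a CellTiter-Fluor fluorescence read for viability, then a luciferase luminescence read for Nrf2/ARE activity.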
# Potency means the concentration at half of the fitted maximal effect.
row,SMILES,Potency
1,Cc1c(Cl)ccc2c1NC(=O)C21NC(CCC(N)=O)[C@H]2C(=O)N(c3ccc(Cl)cc3)C(=O)[C@H]21 (some centres not stated),"inconclusive: 11.6 µM [falling, partial curve, poor fit]"
2,NC(N)=N/N=C/c1ccccc1,inactive
3,CCOc1ccccc1-c1nc2c([nH]1)c(=O)n(C)c(=O)n2C,inactive
4,CC1CCCCN1CCCNC(=O)Cn1ncc2c3ccccc3n(Cc3ccccc3)c2c1=O (configuration not stated),inactive
5,COC(CN(C(=O)CCl)C(C(=O)NC1CCCCC1)c1ccccc1C)OC (configuration not stated),"inconclusive: 20.6 µM [falling, single point]"
6,CCOC(=O)Cc1csc(NC(=O)Nc2ccc(OC(F)(F)F)cc2)n1,inactive
7,COc1ccc(/C=C/C(=O)c2ccccc2)c(OC)c1,"inconclusive: 16.4 µM [activator, partial curve]"
8,CC(C)(C)NC(=O)C(c1ccc(-c2ccccc2)cc1)N(C[C@H]1CC[C@@H]([C@@H]2CC[C@H](CO)O2)O1)C(=O)c1ccc(-c2ccccc2)cc1 (some centres not stated),"inconclusive: 20.6 µM [falling, single point]"
9,Cc1ccc(NS(=O)(=O)c2cccc(F)c2)cc1C,inactive
10,CCc1cc(C(=O)O)c(NC(=O)/C=C/c2ccc(OC)cc2)s1,"inconclusive: 5.17 µM [activator, partial curve]"
11,CCOc1ccc(-n2ccnc(SCC(=O)Nc3cccc(OC)c3)c2=O)cc1,"inconclusive: 32.6 µM [falling, single point]"
12,CC/C(=N/NC(=O)c1ccccc1)c1ccc(OCCN2CCOCC2)cc1,"inconclusive: 10.3 µM [activator, partial curve]"
13,O=S1(=O)c2ccccc2N(Cc2ccc(F)cc2)c2ccccc21,"inconclusive: 29.1 µM [activator, single point]"
14,O=C(CSc1nnc(-c2ccccc2F)o1)NC1CCCCC1,"inconclusive: 0.206 µM [falling, full curve]"
15,COc1ccccc1N=Nc1ccc(O)c2ncccc12,inactive
16,COc1ccc(Nc2nnc(-n3nc(C)cc3C)c3ccccc23)cc1,inactive
17,CCN1C(=O)[C@@H]2[C@@H](c3ccc(-c4ccc(Cl)c(Cl)c4)cc3)N3CCC[C@@]3(C(=O)OC)[C@@H]2C1=O,"inconclusive: 11.6 µM [falling, partial curve, poor fit]"
18,C=C(C)c1sc(-c2ccc(Cl)cc2)nc1C,"inconclusive: 16.4 µM [activator, partial curve]"
19,COc1cc(C2C3=C(Nc4nc(N)[nH]c(=O)c42)c2ccccc2C3=O)ccc1O (configuration not stated),inactive
20,C/C(=N/NC(=O)c1ccc(C(C)(C)C)cc1)c1ccccn1,active: 5.8 µM
21,O=c1cc(-c2c(F)c(F)c(F)c(F)c2F)oc2ccccc12,"inconclusive: 29.1 µM [falling, single point]"
22,Cc1ccc(S(=O)(=O)Nc2cccc3c2O[C@H](CN(C)Cc2ccc(-c4ccccc4)cc2)[C@@H](C)CN([C@H](C)CO)C3=O)cc1,"inconclusive: 29.1 µM [falling, single point]"
23,COc1ccc(CC(=O)Nc2ccc(-c3ccc4nnc(C)n4n3)cc2)cc1OC,"inconclusive: 23.1 µM [falling, single point]"

# 5 records drawn at random from those above:
row,SMILES,Potency
15,COc1ccccc1N=Nc1ccc(O)c2ncccc12,inactive
21,O=c1cc(-c2c(F)c(F)c(F)c(F)c2F)oc2ccccc12,"inconclusive: 29.1 µM [falling, single point]"
5,COC(CN(C(=O)CCl)C(C(=O)NC1CCCCC1)c1ccccc1C)OC (configuration not stated),"inconclusive: 20.6 µM [falling, single point]"
6,CCOC(=O)Cc1csc(NC(=O)Nc2ccc(OC(F)(F)F)cc2)n1,inactive
8,CC(C)(C)NC(=O)C(c1ccc(-c2ccccc2)cc1)N(C[C@H]1CC[C@@H]([C@@H]2CC[C@H](CO)O2)O1)C(=O)c1ccc(-c2ccccc2)cc1 (some centres not stated),"inconclusive: 20.6 µM [falling, single point]"

# (continued)

row,SMILES,Potency
1,COc1ccc(CC(=O)O/N=C(\N)c2ccccn2)cc1,"inconclusive: 18.4 µM [activator, partial curve]"
2,O=Cc1c(-c2ccc(F)cc2)nc2ccccn12,"inconclusive: 20.6 µM [activator, single point]"
3,Cc1ccc(S(=O)(=O)NCCN=Cc2ccc(N(C)C)cc2)cc1,"inconclusive: 32.6 µM [falling, single point]"
4,CC(C)NC(=O)c1ccccc1NC(=O)/C=C/c1ccc([N+](=O)[O-])cc1,"inconclusive: 13 µM [falling, partial curve, poor fit]"
5,Cc1ccsc1C(=O)OCc1cc(=O)n2ccsc2n1,"inconclusive: 2.59 µM [activator, partial curve]"
6,CC(C)c1ccc(CN(C)C(=O)c2ccc(S(=O)(=O)NCc3ccco3)cc2)cc1,"inconclusive: 18.4 µM [falling, single point]"
7,O=C(Nc1cccc(F)c1)c1ccc(CSc2ccccc2)o1,"inconclusive: 16.4 µM [activator, single point]"
8,COc1cc(-c2nc3ccccc3s2)ccc1O,active: 18.4 µM
9,CCc1nnc(NS(=O)(=O)c2ccc(NC(=O)/C=C/C(=O)O)cc2)s1,"inconclusive: 18.4 µM [falling, single point]"
10,Cc1ccc(-c2nc(CS(=O)(=O)CC(=O)N3CCN(c4ccccc4)CC3)c(C)o2)cc1,"inconclusive: 29.1 µM [falling, single point]"
11,CCOC(=O)N1CCN(C(=O)C2CCN(c3nnc(-n4cccc4)s3)CC2)CC1,"inconclusive: 1.84 µM [activator, partial curve, poor fit]"
12,O=C(CCc1nnc(CCCc2ccccc2)o1)NCCc1ccco1,"inconclusive: 16.4 µM [activator, single point]"
13,COc1ccc(CNC(=O)c2cc3c(=O)n(Cc4ccc(OC)cc4)ccc3nc2C)cc1,"inconclusive: 16.4 µM [falling, partial curve, poor fit]"
14,CCOc1ccc(C(=O)NC(=S)Nc2ccc(NC(=O)c3ccco3)c(C)c2)cc1[N+](=O)[O-],"inconclusive: 9.2 µM [falling, partial curve]"
15,CC(=O)Nc1ccc(S(=O)(=O)NCCS(=O)(=O)N2CCN(c3ccccc3)CC2)cc1,"inconclusive: 10.3 µM [falling, partial curve, poor fit]"
16,CC(NC(=S)Nc1ccccc1Cl)C(c1ccccc1)N1CCOCC1 (configuration not stated),"inconclusive: 29.1 µM [falling, partial curve, poor fit]"
17,Cn1c(-c2ccc(F)c(F)c2)cc2onc(-c3ccccc3)c2c1=O,"inconclusive: 6.51 µM [activator, partial curve, poor fit]"
18,Cc1cc(C)cc(NC(=S)N(CCN2CCCCC2)Cc2ccco2)c1,"inconclusive: 25.9 µM [falling, single point]"
19,CC(=O)Nc1nc(NC(=O)/C=C/c2ccccc2)n(-c2ccccc2)n1,"inconclusive: 20.6 µM [falling, single point]"
20,Cc1nc(N=C(N)N)nc2ccccc12,inactive
21,COc1ccc(N(CC(=O)NCCSCc2ccc(C)cc2)S(=O)(=O)c2ccccc2)cc1,"inconclusive: 16.4 µM [falling, single point]"
22,COc1cc(/C=C2/C(=N)N3C(c4ccccc4)=CSC3=NC2=O)ccc1OCC(=O)O,"inconclusive: 29.1 µM [falling, single point]"
23,Cc1ccccc1OCCSc1nc2ccc(NC(=O)c3ccco3)cc2s1,"inconclusive: 16.4 µM [falling, partial curve]"

row,SMILES,Potency
1,COc1ccc(C2C(C#N)=C(N)Oc3cc4c(cc32)OCO4)cc1 (configuration not stated),"inconclusive: 25.9 µM [falling, partial curve]"
2,COc1ccc2oc(C(=O)OCC(=O)NC(=O)NC(C)C)c(C)c2c1,inactive
3,COc1ccc2c(c1)oc1c(SCc3nc4ccccc4[nH]3)nc(C)nc12,"inconclusive: 2.31 µM [activator, partial curve, poor fit]"
4,CSc1ccc(CN2C(=O)NC3(CCCCCC3)C2=O)cc1,active: 18.4 µM
5,COc1ccc(CNC(=O)C2(CC3CC(c4ccccc4)=NO3)CCN(C(=O)C3(C)CC3)CC2)cc1 (configuration not stated),"inconclusive: 5.8 µM [activator, partial curve]"
6,CC1CCN(C(=O)c2cc(-c3ccc(Cl)c(Cl)c3)on2)CC1,"inconclusive: 29.1 µM [activator, single point]"
7,COc1cc(Nc2nc3c(S(=O)(=O)c4cccc(Cl)c4)nnn3c3ccsc23)cc(OC)c1,inactive
8,CCOc1ccc2oc(-c3ccccc3)c(C(=O)N3CCN(C)CC3)c2c1,inactive
9,COc1ccc(OCC(=O)Nc2cc(-c3nc4ccccc4o3)ccc2Cl)cc1,"inconclusive: 11.6 µM [activator, partial curve, poor fit]"
10,CC1(C)CC(CC(=O)Nc2nccs2)(c2ccccc2)CCO1 (configuration not stated),inactive
11,COc1ccc(C(=O)OCc2c(-c3cccc(OC)c3)ncc3ccccc23)cc1,"inconclusive: 25.9 µM [falling, single point]"
12,COCCNC(=O)CCCn1c(SCc2ccccc2C)nc2c(sc3ccccc32)c1=O,"inconclusive: 29.1 µM [falling, single point]"
13,Cc1coc(=N)n1CC(=O)c1ccc(Cl)cc1,"inconclusive: 16.4 µM [activator, single point]"
14,CCCCNC(=O)COC(=O)CNC(=O)c1cc(Cl)cc([N+](=O)[O-])c1,inactive
15,Cn1c(=O)c2c(nc(Cl)n2CC(=O)NC2(C#N)CCCCC2)n(C)c1=O,inactive
16,Cc1ccc2c(cnn2C(=O)CCCC(=O)NCc2ccc(F)cc2)c1,"inconclusive: 0.259 µM [activator, full curve]"
17,Cc1nc(NC(=O)c2ccco2)sc1C(=O)O,"inconclusive: 20.6 µM [falling, partial curve]"
18,CCCc1noc2c1C(c1cc(Br)ccc1F)C(C#N)=C(N)N2 (configuration not stated),"inconclusive: 2.06 µM [falling, full curve]"
19,Cc1ccc(CNC(=O)c2ccc(N3Cc4ccccc4Oc4ncccc43)s2)cc1,inactive
20,Cc1ccc(-n2ncc3c2CC(C)(C)CC3NC(=O)CCc2ccncc2)cc1 (configuration not stated),"inconclusive: 20.6 µM [falling, partial curve]"
21,NNC(=O)CCN1CCCCC1,"inconclusive: 32.6 µM [falling, partial curve, poor fit]"
